Experimental data: PubChem BioAssay AID1259254 (NCATS, 2017)
Aim: 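Gene knock-downs that lead to re-replication, shown by excess G2 DNA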 (primary screen). Cell system: human HCT116 colorectal cancer cells. Reagent: single siRNA against human genes. Duration: 3 days. Measured: 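Nuclei stained with Hoechst and imaged; cell-cycle phase assigned by DNA content; G2 share scaled per plate, non-targeting siRNA 0%, GMNN siRNA 100%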. Direction: G2 robust z-score and G2 cells, % of GMNN control: higher = more G2 cells, more excess DNA replication. Hit rule: 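Active siRNAs have a G2 robust z of 5 or more median absolute deviations over the median, which in these data means about 38% or higher of GMNN control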.
Here is a random part of about 59,000 reagents tested. About 1,550 of all reagents (2.6%) were called active. 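G2 share is only a proxy for re-replication; each gene was hit by three separate siRNAs, and active genes were retested.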 Unmarked entries are inactive. The numbers tell different reagents against one gene apart. Not all columns of the deposit are shown. Not given: the amount of reagent.

What did the screen give for JOSD1 #1?
G2 robust z-score: 0.198; G2 cells, % of GMNN control: 4.36

Which result is listed for JOSD1 #2?
G2 robust z-score: 0.0897; G2 cells, % of GMNN control: 3.6

For JOSD1 #3, what was measured?
G2 robust z-score: -0.389; G2 cells, % of GMNN control: 0.229

With SART3 #1, what does the deposit list?
G2 robust z-score: 4.3; G2 cells, % of GMNN control: 33.2

What did the screen give for SART3 #2?
G2 robust z-score: -0.157; G2 cells, % of GMNN control: 1.86

What did the screen give for SART3 #3?
G2 robust z-score: -0.0288; G2 cells, % of GMNN control: 2.76

What is on record for HMX1 #1?
G2 robust z-score: -1.03; G2 cells, % of GMNN control: -4.29

What did the screen give for HMX1 #2?
G2 robust z-score: 1.2; G2 cells, % of GMNN control: 11.4

Which result is listed for HMX1 #3?
G2 robust z-score: 2.3; G2 cells, % of GMNN control: 19.1

With CTNS #1, what was measured?
G2 robust z-score: 0.39; G2 cells, % of GMNN control: 5.71

With CTNS #2, what does the deposit list?
G2 robust z-score: 2.45; G2 cells, % of GMNN control: 20.2

With CTNS #3, what does the deposit list?
G2 robust z-score: 0.958; G2 cells, % of GMNN control: 9.71

How did the screen score SPIRE2 #1?
G2 robust z-score: -0.594; G2 cells, % of GMNN control: -1.21

Which result is listed for SPIRE2 #2?
G2 robust z-score: -0.426; G2 cells, % of GMNN control: -0.0331

For SPIRE2 #3, what was measured?
G2 robust z-score: 0.341; G2 cells, % of GMNN control: 5.36

Ordered by “G2 robust z-score” (descending): 2 of the entries above.
HMX1 #3: G2 robust z-score = 2.3; G2 cells, % of GMNN control = 19.1
CTNS #1: G2 robust z-score = 0.39; G2 cells, % of GMNN control = 5.71

Additional results follow:
For BRPF3 #1, what does the deposit list?
G2 robust z-score: 8.89 (active); G2 cells, % of GMNN control: 65.5

What did the screen give for BRPF3 #2?
G2 robust z-score: -0.708; G2 cells, % of GMNN control: -2.01

What is on record for BRPF3 #3?
G2 robust z-score: -0.597; G2 cells, % of GMNN control: -1.24

What did the screen give for HSPA12B #1?
G2 robust z-score: 0.501; G2 cells, % of GMNN control: 6.49

How did the screen score HSPA12B #2?
G2 robust z-score: -0.0797; G2 cells, % of GMNN control: 2.41

What did the screen give for HSPA12B #3?
G2 robust z-score: -0.0689; G2 cells, % of GMNN control: 2.48

For KCNJ9 #1, how do the results read?
G2 robust z-score: 1.47; G2 cells, % of GMNN control: 13.3

Which result is listed for KCNJ9 #2?
G2 robust z-score: 1.32; G2 cells, % of GMNN control: 12.2

For KCNJ9 #3, what was measured?
G2 robust z-score: -0.316; G2 cells, % of GMNN control: 0.745
